Experimental data reported in publication PMC7819943, “Rice protein-binding microarrays: a tool to detect cis-acting elements near promoter regions in rice”.
Some of the results follow.

target: T1, OsSMF1 (Oryza sativa, UniProt Q6ZLB0 1-436); test: protein-binding microarray (RPBM); PBS, 2% BSA, 51.3 ng/ul salmon testes DNA, 50 uM zinc acetate, 200 nM TF, 25 C, 1 h; high values mean tight binding; conditions: protein: recombinant; tags: N-terminal polyhistidine and DsRed monomer fusion (pET32a); chain copies: 2; label: CyDye5-dUTP incorporated in the synthesized complementary strand; 3' TTTTT single-stranded linker to array surface; dsDNA, one strand shown
T1 sequence: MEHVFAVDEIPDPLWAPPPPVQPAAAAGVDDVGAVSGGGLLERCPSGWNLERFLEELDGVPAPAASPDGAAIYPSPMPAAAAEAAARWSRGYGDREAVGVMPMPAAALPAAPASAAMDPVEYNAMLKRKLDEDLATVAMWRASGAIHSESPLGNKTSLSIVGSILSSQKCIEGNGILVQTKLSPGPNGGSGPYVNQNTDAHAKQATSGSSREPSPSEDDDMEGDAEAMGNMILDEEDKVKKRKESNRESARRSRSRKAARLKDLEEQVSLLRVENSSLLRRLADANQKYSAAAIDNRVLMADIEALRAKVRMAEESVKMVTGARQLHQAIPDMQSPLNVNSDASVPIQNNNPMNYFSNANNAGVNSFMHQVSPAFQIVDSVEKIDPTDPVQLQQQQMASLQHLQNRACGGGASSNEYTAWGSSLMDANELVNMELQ
Outline: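 Transcription factors were made in E. coli BL21-CodonPlus as N-terminal fusions to a polyhistidine tag and DsRed, then purified on Ni–NTA. After primer extension with Cy5-dUTP and blocking with 2% BSA, a custom Agilent array was exposed for 1 h at 25 °C to 200 nM protein in PBS, 2% BSA, salmon testes DNA and 50 µM zinc acetate. Washed arrays were scanned on an Axon 4000B, and the binding signal is per-feature fluorescence intensity in arbitrary units.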

Sequence	binding signal
CCGCCGGCCGCTTCCACGCCTCCGTCGACCTCGCCAAGTCCGGAGTCACCTAGTGCAG	3470 fluorescence intensity (a.u.)
GCCTGAATCCTCCGTTGAAGAGTCGGACAACGGCCGCCGCCGGAGTCACCTAGTGCAG	8890 fluorescence intensity (a.u.)
GATGACGACGGCGATGACGGCGGGGCGGTTTGGAGCGGGGCGGAGTCACCTAGTGCAG	4720 fluorescence intensity (a.u.)
GGAGGATTTCCGGTCCAGACCACCACGTCAGCGGCGTGCCCGGAGTCACCTAGTGCAG	26000 fluorescence intensity (a.u.)
GGTTCAACGCTTGCCATGGAAGTAACGTACAGGGAGACTGCGGAGTCACCTAGTGCAG	3200 fluorescence intensity (a.u.)
TCTTCTTCTTCTTCTTCTTCATAGCTTGCCTTTCTCCCTTCGGAGTCACCTAGTGCAG	4400 fluorescence intensity (a.u.)
ACTACCAAACCGTGGAGTAGTGTGTGTGTGCCGTACTGTTCGGAGTCACCTAGTGCAG	21600 fluorescence intensity (a.u.)
CGGCCTCCACGTTCCGGGGCCCACCTGTCAGTGAGCGCCACGGAGTCACCTAGTGCAG	28900 fluorescence intensity (a.u.)
CTTAAAATAACATCTCAGAGGTAGGTACTGTTCGTGAGGGCGGAGTCACCTAGTGCAG	29200 fluorescence intensity (a.u.)
TAATGTATTTATTTATTTTATTATGACTTGATTTATCGTCCGGAGTCACCTAGTGCAG	3780 fluorescence intensity (a.u.)
ACGGGCCGGACAGCTGGTACGTCACGTACACGTCTAGGGCCGGAGTCACCTAGTGCAG	4390 fluorescence intensity (a.u.)
AACAACTTTAGCGGCAAAATAGCGGTGGAAGAAAATCGGACGGAGTCACCTAGTGCAG	33800 fluorescence intensity (a.u.)
GGAGGTAGTATGATGCATCCCTCAACTTTCAAAACCATTGCGGAGTCACCTAGTGCAG	3710 fluorescence intensity (a.u.)
CGCCGTCCTGCTGCTTCCGCCGCATCACATCCCGGTGAGCCGGAGTCACCTAGTGCAG	3330 fluorescence intensity (a.u.)
ACATTTATTGCATCATTACATTCTGAAGTAATTTCAACATCGGAGTCACCTAGTGCAG	3470 fluorescence intensity (a.u.)
TTGGTAGTTGGGTGGTGATGTAGCAGCAGCAGGGGCCGGCCGGAGTCACCTAGTGCAG	4600 fluorescence intensity (a.u.)
CGTTGGCCACGTTGATGGTGACCCGTACGCTCTCCCCGGCCGGAGTCACCTAGTGCAG	5210 fluorescence intensity (a.u.)
CTTCCCCGAGTCCATCGCCGGAGTAGTAGTGCCGCAGAAGCGGAGTCACCTAGTGCAG	28800 fluorescence intensity (a.u.)
CTCATTTGAACACATGTACACTACTAATCCTCGTTCTGGACGGAGTCACCTAGTGCAG	39200 fluorescence intensity (a.u.)
CAAGCATTCAAAAGCTAGTAGTGACGTGCTTACTCCATCCCGGAGTCACCTAGTGCAG	8130 fluorescence intensity (a.u.)
AGGATGAGCGGTTCCTCCGTGACACGGCAGTGGGTTTCATCGGAGTCACCTAGTGCAG	4010 fluorescence intensity (a.u.)

Sequence	binding signal
CGTCATCTCGTGTACCGCAGGCGCGTGGCGTGCCAAGTTCCGGAGTCACCTAGTGCAG	3160 fluorescence intensity (a.u.)
CCTTCGCCGTTGATCGAGTCGACGTGGCTTTCCTGACGCCCGGAGTCACCTAGTGCAG	15500 fluorescence intensity (a.u.)
AATCGCGGGGTCGTTGTCACTGTCACGCACTAATCCGCTGCGGAGTCACCTAGTGCAG	5300 fluorescence intensity (a.u.)
TGACAATTACTCCGTGTAATCTCCCTCTAAAATTTATTTTCGGAGTCACCTAGTGCAG	23800 fluorescence intensity (a.u.)
TCACCTCTATCTCAATGACACGTGGCTCCACATGTGTCTACGGAGTCACCTAGTGCAG	18400 fluorescence intensity (a.u.)
AAGCTTTGTCACTGGCTCAACATGACGATATATCGGTTAACGGAGTCACCTAGTGCAG	3450 fluorescence intensity (a.u.)
TCCTCACGCTTTCTCGGTTCCATTTGGCTTTATTAATAATCGGAGTCACCTAGTGCAG	3260 fluorescence intensity (a.u.)
ATCAATAAGATGGCATGCATGCAGTTGCAGCTGACGCGCACGGAGTCACCTAGTGCAG	3270 fluorescence intensity (a.u.)
CCATTGCAAAATTCCTACGCTCTACGCAAATCTCGTGTCACGGAGTCACCTAGTGCAG	3850 fluorescence intensity (a.u.)
CCACCGACGCCGACGTCGGCGGTCTCCGTCTTTCGTGCCACGGAGTCACCTAGTGCAG	3940 fluorescence intensity (a.u.)
GGACATGCCAAACCACGACAACAACAATGGCACCACGTCGCGGAGTCACCTAGTGCAG	4080 fluorescence intensity (a.u.)
TGGGTTAATTGGGTTGGGTGGGCCGCTGCCTATGTGGCGGCGGAGTCACCTAGTGCAG	6640 fluorescence intensity (a.u.)
CCTACTCCACTCCCCTAGCTTCTGTCGCATGAGGTGGAGCCGGAGTCACCTAGTGCAG	3370 fluorescence intensity (a.u.)
AAAGCCCAATGGGCCAGATCAACGCGGCCCATTTACACTCCGGAGTCACCTAGTGCAG	3260 fluorescence intensity (a.u.)
ACATGACATGTATAGTGCTGATGACCATGTCAAGTTATCACGGAGTCACCTAGTGCAG	4530 fluorescence intensity (a.u.)
CGGCGGTCCGTCGCTCATGTCGTCATTGGCCGGCGAGTCACGGAGTCACCTAGTGCAG	5550 fluorescence intensity (a.u.)
AGATTAGCGAAACCCACGTACCCTCTATTTCAGTTTAACGCGGAGTCACCTAGTGCAG	4120 fluorescence intensity (a.u.)
TGAAGAAGATATAGGTAAATGGAAGCCTGATGATATCATGCGGAGTCACCTAGTGCAG	21100 fluorescence intensity (a.u.)
TACACCTCATGAGTCATGATGATCCGTGGGTTCGTTAGGCCGGAGTCACCTAGTGCAG	9840 fluorescence intensity (a.u.)
AGATATCACAACCTGACCCACATTAGTCACACGCACTCACCGGAGTCACCTAGTGCAG	5510 fluorescence intensity (a.u.)
CTAAACAAAACACATCACACGTCACGTTCAATCAAACTCACGGAGTCACCTAGTGCAG	4280 fluorescence intensity (a.u.)

Fetched one by one from the entries so far (two):
Sequence	binding signal
AAGCTTTGTCACTGGCTCAACATGACGATATATCGGTTAACGGAGTCACCTAGTGCAG	3450 fluorescence intensity (a.u.)
CCTACTCCACTCCCCTAGCTTCTGTCGCATGAGGTGGAGCCGGAGTCACCTAGTGCAG	3370 fluorescence intensity (a.u.)
